PMC12431657, “Discovery and mechanistic insights of dibenzoylmethane as a broad spectrum inhibitor of coronavirus” (PLOS Pathogens, 2025)
Where a name gives a salt, the structure may show the parent alone. Read-outs that look alike come from different tables or passages of the source. In all, about 3,300 compounds went through this assay and about 60 (2%) showed an effect of 50% or more. The list shows a part of the results.

Tested on: HCoV-OC43
Parameters: species or system RD; HTS, protection from HCoV-OC43 induced cell death, luminescent cell viability (CellCounting-Lite 2.0), inhibition rate
Conditions: 24 h post infection, 1 h compound pre-incubation, 10 µM, inhibitor

Row | Compound | OC43 Inhibition rate | OC43 Inhibition rate (OC43 Inhibition rate, 24 h)
1 | Cc1cncc(C)n1 [2,6-Dimethylpyrazine] | 2.1% | –
2 | CC(=O)O[C@H]1[C@H](O[C@H]2CC[C@]34C[C@]35CC[C@]3(C)[C@@H]([C@@]6(C)CC[C@@H](C(C)(C)O)O6)[C@@H](O)C[C@@]3(C)[C@@H]5C[C@H](O[C@@H]3O[C@H](CO)[C@@H](O)[C@H](O)[C@H]3O)[C@H]4C2(C)C)OC[C@@H](OC(C)=O)[C@@H]1O [Isoastragaloside I] | 4.3% | –
3 | O=C(/C=C/c1ccc(O)c(O)c1)O[C@H](Cc1ccc(O)c(O)c1)C(=O)O [Rosmarinic acid] | -3.5% | –
4 | COc1cc(C[C@@H](CO[C@@H]2O[C@H](CO)[C@@H](O)[C@H](O)[C@H]2O)[C@H](CO[C@@H]2O[C@H](CO)[C@@H](O)[C@H](O)[C@H]2O)Cc2ccc(O)c(OC)c2)ccc1O [(R,R)-Secoisolariciresinol diglucoside] | – | -0.5%
5 | COc1ccc(-c2cc(=O)c3c(O)c(OC)c(O)cc3o2)cc1OC [Eupatilin] | 4.5% | –
6 | O=C(O)/C=C/c1ccc2c(c1)OCO2 [3,4-Methylenedioxycinnamic acid] | – | 3.6%
7 | O=c1cc(-c2ccc(O)c(O)c2)oc2cc(O[C@@H]3O[C@H](CO)[C@@H](O)[C@H](O)[C@H]3O)c(O)c(O)c12 [6-Hydroxyluteolin 7-glucoside] | -0.7% | –
8 | C=C[C@](C)(O)CC[C@@H]1[C@@]2(C)CCCC(C)(C)[C@@H]2CC[C@@]1(C)O [Sclareol] | 9.7% | –
9 | O=C(O)[C@@H]1[C@H]2C[C@H]3c4[nH]c5ccccc5c4CCN3C[C@@H]2CC[C@@H]1O [Yohimbic acid] | -0.7% | –
10 | CC(O)(CCO)CC(=O)O (stereo not shown) [Mevalonic acid (lithium salt)] | -0.5% | –
11 | CC=C1[C@@H]2C=C(C)C[C@@]1(N)c1ccc(=O)[nH]c1C2 (racemic) [(±)-Huperzine A] | 1.6% | –
12 | COc1c(/C=C/C(=O)c2ccc(O)cc2)ccc(O)c1CC=C(C)C [Licochalcone C] | 39% | –
13 | COc1cc(CNC(=O)CCCC/C=C/C(C)C)ccc1O [Capsaicin] | 10.2% | –
14 | CCC1(c2ccc(O)cc2)NC(=O)N(C)C1=O (stereo not shown) [4-Hydroxymephenytoin] | -0.5% | –
15 | CCCOC(=O)c1ccc(O)cc1 [Propylparaben] | -1.1% | –
16 | Oc1cc(O)c2cc(O)c(-c3ccc(O)c(O)c3)[o+]c2c1 [Cyanidin (Chloride)] | -0.5% | –
17 | O=C1c2ccccc2C(=O)c2c(O)c(O)cc(O)c21 [Purpurin] | -0.1% | –
18 | CC(=O)O[C@@]1(C)C[C@@H](O)[C@]2(O)C=CO[C@@H](O[C@@H]3O[C@H](CO)[C@@H](O)[C@H](O)[C@H]3O)[C@@H]21 [8-O-Acetylharpagide] | 0% | –
19 | COc1cc2ccc(=O)oc2c(O)c1O [Fraxetin] | -0.3% | –
20 | Nc1ccccc1S(=O)(=O)O [2-Aminobenzenesulfonic acid] | 0.5% | –
21 | O=C(O)C(O)C(O)C(=O)O (stereo not shown) [Choline (bitartrate)] | – | -1.3%
22 | C=C[C@](C)(O)CC[C@H]1C(=C)CC[C@H]2C(C)(C)CCC[C@]12C [Manool] | 0.7% | –
23 | Cc1ccc(O)c(O)c1 [4-Methylcatechol] | -0.9% | –
24 | C[C@@H]1O[C@@H](Oc2cc(O)c3c(=O)c(O)c(-c4ccc(O)cc4)oc3c2O)[C@H](O)[C@H](O)[C@H]1O [Rhodionin] | 0.2% | –
25 | CC(=O)O[C@@]12CO[C@@H]1C[C@H](O)[C@@]1(C)C(=O)[C@H](O)C3=C(C)[C@@H](OC(=O)[C@H](O)[C@@H](NC(=O)c4ccccc4)c4ccccc4)C[C@@](O)([C@@H](OC(=O)c4ccccc4)[C@H]21)C3(C)C [10-Deacetyltaxol] | 0.2% | –
26 | CC(C)=CCC[C@H](C)CC=O [(S)-(-)-Citronellal] | -0.8% | –
27 | COc1cc2c(cc1OC)[C@@H](Cc1ccc(O)c(Oc3cc4c(cc3OC)CCN(C)[C@@H]4Cc3ccc(O)cc3)c1)N(C)CC2 [Liensinine (perchlorate)] | – | 0.4%
28 | C=C1C[C@@]23CC[C@H]4[C@@](C)(CCC[C@@]4(C)C(=O)O[C@@H]4O[C@H](CO)[C@@H](O)[C@H](O)[C@H]4O)[C@@H]2CC[C@]1(O[C@@H]1O[C@H](C)[C@@H](O)[C@H](O)[C@@H]1O[C@@H]1O[C@H](CO)[C@@H](O)[C@H](O[C@@H]2O[C@H](CO)[C@@H](O)[C@H](O)[C@H]2O)[C@H]1O)C3 [Rebaudioside C] | -0.6% | –

Random excerpt: two compounds from above.
Row | Compound | OC43 Inhibition rate | OC43 Inhibition rate (OC43 Inhibition rate, 24 h)
17 | O=C1c2ccccc2C(=O)c2c(O)c(O)cc(O)c21 [Purpurin] | -0.1% | –
18 | CC(=O)O[C@@]1(C)C[C@@H](O)[C@]2(O)C=CO[C@@H](O[C@@H]3O[C@H](CO)[C@@H](O)[C@H](O)[C@H]3O)[C@@H]21 [8-O-Acetylharpagide] | 0% | –
